Assay results published in the supplement of paper PMC10849652.
This is one part of the list.

By UniProt entry, the sequences of proteins in these tests, tags left out. Where a name states a change or a piece, a line headed by the entry shows the natural chain unless it says otherwise.
UniProt Q6UW68: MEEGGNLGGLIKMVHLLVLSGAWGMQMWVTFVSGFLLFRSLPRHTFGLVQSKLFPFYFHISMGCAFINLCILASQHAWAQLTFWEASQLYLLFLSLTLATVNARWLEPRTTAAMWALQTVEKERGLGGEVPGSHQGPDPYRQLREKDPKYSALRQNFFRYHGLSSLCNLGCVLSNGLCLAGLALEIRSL
UniProt O43399: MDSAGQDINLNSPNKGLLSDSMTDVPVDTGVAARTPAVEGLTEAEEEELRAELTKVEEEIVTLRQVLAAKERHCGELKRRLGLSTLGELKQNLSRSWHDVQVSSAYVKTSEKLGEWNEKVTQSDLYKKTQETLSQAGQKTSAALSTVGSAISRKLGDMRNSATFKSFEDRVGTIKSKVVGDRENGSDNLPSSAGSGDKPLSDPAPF
UniProt Q9BTX3: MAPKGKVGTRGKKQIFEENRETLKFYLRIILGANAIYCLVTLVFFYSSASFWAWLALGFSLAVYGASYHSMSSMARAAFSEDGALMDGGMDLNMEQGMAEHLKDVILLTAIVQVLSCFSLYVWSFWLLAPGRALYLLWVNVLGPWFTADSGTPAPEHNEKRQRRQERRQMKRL
UniProt Q9HCJ0: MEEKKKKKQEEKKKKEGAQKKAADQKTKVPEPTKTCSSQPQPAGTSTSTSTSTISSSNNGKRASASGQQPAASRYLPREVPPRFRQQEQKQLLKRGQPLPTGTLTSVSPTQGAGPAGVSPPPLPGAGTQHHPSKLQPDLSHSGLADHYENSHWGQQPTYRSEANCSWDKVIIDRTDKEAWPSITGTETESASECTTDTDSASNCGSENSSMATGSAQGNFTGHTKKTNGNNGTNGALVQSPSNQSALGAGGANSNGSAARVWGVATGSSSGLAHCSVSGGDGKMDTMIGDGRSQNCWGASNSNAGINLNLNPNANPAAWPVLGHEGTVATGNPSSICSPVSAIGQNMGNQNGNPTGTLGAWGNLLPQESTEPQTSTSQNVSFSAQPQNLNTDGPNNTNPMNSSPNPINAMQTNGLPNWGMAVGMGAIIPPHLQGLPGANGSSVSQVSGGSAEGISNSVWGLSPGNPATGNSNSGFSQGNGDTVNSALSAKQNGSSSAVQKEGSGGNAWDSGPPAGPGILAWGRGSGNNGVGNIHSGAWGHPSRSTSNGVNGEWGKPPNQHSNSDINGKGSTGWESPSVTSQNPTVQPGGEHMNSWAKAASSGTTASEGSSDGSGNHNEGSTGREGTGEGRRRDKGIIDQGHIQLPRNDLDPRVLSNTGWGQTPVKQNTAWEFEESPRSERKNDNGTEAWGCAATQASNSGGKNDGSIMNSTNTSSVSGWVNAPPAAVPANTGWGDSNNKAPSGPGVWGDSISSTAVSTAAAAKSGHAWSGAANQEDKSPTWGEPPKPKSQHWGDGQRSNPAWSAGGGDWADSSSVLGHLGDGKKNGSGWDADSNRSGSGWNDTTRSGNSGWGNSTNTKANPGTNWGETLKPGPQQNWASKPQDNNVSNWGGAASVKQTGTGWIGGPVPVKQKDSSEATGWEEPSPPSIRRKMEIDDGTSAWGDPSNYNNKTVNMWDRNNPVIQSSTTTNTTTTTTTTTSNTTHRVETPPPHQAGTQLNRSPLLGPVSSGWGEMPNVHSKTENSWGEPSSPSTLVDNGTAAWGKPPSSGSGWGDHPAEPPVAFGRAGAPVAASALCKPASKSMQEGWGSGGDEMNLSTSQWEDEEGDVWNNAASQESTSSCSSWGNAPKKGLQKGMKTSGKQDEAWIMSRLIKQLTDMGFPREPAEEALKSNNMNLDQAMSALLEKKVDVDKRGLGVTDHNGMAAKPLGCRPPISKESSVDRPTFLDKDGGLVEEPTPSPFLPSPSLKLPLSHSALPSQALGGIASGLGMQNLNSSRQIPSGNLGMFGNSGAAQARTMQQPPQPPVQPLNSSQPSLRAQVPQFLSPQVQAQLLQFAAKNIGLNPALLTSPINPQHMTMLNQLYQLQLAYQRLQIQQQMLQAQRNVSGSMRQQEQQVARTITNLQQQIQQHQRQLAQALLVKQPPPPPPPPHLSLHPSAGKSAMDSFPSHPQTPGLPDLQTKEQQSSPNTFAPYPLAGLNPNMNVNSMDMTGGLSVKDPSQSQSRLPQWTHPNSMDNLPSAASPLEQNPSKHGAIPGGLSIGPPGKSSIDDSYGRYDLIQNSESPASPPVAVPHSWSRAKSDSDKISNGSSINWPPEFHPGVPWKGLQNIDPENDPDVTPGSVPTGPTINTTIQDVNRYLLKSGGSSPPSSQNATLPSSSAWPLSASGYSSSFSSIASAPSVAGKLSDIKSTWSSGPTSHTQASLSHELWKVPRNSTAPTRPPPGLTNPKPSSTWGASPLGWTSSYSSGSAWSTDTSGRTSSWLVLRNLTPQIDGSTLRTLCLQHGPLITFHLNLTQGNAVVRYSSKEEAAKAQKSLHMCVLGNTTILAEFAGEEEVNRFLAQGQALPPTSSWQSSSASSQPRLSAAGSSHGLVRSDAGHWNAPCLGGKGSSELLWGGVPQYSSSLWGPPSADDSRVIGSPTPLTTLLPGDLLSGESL
UniProt P62328: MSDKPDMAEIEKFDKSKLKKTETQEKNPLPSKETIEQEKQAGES
UniProt Q07912: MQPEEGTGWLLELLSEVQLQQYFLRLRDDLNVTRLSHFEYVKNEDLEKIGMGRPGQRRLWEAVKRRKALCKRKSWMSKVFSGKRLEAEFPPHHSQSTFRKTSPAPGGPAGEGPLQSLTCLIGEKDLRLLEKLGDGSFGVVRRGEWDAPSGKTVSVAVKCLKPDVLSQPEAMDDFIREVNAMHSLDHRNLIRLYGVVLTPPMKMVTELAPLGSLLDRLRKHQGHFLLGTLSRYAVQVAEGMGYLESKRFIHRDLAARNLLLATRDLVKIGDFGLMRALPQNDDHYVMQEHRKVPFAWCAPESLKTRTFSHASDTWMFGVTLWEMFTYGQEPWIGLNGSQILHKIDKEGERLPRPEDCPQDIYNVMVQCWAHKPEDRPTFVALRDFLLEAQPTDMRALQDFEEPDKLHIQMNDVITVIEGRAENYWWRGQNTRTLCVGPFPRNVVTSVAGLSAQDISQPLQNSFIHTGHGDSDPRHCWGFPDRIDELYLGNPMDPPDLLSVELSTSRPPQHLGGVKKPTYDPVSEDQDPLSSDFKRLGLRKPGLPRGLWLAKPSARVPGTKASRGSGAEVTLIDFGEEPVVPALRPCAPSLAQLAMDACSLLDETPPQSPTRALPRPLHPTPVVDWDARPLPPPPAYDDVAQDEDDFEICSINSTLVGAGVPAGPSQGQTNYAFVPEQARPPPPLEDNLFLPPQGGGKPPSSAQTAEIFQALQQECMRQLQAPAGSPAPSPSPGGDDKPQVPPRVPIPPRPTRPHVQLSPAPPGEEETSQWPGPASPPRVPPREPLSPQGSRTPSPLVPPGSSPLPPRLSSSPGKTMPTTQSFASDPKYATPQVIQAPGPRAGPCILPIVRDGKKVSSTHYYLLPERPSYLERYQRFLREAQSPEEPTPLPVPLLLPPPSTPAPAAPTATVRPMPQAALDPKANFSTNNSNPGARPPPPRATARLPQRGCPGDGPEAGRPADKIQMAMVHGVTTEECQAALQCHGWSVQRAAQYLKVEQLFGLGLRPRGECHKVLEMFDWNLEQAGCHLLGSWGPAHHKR
UniProt P21580: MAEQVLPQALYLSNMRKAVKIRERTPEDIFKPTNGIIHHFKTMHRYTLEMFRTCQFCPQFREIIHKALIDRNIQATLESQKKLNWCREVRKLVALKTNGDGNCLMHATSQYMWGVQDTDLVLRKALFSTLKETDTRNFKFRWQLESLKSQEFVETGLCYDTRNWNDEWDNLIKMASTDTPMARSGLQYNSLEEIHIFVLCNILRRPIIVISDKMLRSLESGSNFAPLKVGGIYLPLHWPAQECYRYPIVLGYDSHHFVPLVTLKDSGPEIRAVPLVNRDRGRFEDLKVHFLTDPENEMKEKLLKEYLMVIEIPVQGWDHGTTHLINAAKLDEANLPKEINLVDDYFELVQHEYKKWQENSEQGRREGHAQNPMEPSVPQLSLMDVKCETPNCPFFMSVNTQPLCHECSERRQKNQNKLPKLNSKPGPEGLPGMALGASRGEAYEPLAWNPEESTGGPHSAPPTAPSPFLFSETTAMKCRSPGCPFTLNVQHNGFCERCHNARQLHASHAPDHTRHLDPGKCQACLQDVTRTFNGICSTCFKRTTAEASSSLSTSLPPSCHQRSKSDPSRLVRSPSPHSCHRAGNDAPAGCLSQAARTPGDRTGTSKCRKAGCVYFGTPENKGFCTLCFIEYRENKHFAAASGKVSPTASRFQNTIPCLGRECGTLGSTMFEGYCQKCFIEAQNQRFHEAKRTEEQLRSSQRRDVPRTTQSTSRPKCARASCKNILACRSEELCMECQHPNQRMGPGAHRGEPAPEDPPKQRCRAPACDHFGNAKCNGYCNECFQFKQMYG
UniProt Q9BSE2: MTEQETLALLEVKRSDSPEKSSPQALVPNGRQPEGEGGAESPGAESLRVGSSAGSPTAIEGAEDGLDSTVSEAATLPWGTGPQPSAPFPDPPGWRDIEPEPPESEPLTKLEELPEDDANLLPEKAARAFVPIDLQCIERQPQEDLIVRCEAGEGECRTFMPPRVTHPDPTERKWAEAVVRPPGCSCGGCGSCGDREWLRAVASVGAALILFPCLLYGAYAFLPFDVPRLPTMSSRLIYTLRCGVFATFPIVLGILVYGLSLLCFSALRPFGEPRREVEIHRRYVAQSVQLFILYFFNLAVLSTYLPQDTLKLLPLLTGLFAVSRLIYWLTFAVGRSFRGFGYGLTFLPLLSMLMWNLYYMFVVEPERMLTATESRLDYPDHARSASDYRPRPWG
UniProt Q0VDI3: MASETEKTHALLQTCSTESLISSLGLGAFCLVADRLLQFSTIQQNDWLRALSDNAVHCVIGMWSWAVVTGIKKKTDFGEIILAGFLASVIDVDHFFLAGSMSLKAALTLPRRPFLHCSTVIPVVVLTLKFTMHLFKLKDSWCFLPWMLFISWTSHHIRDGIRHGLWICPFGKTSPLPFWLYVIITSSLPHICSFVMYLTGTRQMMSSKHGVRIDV
UniProt O95807: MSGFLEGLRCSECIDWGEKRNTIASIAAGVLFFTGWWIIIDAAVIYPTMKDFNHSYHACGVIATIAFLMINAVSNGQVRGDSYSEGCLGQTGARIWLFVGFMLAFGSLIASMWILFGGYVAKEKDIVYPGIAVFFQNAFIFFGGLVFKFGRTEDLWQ
UniProt Q9H0R3: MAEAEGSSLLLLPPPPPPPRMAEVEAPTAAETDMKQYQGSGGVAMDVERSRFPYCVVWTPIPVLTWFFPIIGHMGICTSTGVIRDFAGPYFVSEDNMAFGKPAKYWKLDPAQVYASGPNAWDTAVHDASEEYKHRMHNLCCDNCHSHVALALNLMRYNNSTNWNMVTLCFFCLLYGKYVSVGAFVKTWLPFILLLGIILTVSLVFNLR
UniProt Q9Y2Y6: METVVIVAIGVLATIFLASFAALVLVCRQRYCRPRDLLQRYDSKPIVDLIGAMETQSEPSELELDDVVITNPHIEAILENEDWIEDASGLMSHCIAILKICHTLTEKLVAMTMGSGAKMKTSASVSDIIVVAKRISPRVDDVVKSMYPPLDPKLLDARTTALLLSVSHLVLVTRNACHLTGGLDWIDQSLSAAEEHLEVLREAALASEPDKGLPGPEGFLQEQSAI
UniProt Q96B49: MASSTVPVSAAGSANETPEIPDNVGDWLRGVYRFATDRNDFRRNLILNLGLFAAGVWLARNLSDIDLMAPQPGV
UniProt Q13829: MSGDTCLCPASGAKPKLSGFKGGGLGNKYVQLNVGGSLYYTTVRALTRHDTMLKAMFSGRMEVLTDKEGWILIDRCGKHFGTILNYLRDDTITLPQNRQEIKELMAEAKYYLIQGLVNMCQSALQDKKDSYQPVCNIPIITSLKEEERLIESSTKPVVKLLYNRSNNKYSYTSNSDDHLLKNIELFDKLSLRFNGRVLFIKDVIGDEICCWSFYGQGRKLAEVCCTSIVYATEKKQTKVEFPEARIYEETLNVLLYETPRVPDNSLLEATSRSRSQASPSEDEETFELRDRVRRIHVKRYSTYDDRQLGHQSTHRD
UniProt Q96SK2: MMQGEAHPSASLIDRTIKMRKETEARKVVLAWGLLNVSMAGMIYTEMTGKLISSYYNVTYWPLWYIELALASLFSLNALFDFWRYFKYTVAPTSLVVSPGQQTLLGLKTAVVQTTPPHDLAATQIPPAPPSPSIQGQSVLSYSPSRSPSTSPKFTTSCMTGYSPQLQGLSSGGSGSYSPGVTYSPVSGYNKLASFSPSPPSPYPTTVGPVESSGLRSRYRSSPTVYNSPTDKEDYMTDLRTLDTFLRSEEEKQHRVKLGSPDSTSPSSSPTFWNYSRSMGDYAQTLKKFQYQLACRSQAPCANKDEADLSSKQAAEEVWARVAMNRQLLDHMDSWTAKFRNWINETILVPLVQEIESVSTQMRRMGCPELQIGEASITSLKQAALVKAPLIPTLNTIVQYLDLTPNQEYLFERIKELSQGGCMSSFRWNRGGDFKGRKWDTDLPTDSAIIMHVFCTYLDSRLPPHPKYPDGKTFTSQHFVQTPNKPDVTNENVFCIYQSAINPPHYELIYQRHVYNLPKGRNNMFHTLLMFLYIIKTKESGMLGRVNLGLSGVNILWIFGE

How the values were obtained:
Assay in all cases: log2 fold change, soluble protein after heating vs DMSO (PISA); higher = thermal stabilisation; K562 lysate, 10 uM; active = over 0.2 and 3.5 SD of the protein, either way, in both replicates (recomputed)
vemurafenib = compound: CCCS(=O)(=O)Nc1ccc(F)c(C(=O)c2c[nH]c3ncc(-c4ccc(Cl)cc4)cc23)c1F [vemurafenib]
Summary of the method: (§1)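 K562 pellets were dounce-homogenised in PBS pH 7.4 containing 1 mM MgCl2, and the crude extract, at 1 mg/mL protein, was exposed to 10 μM compound for 30 min. Aliquots were heated for 3 min across 48°C-58°C, pooled, brought to 0.5% NP-40 at 4°C and spun at 21,000xg for 90 min, with the supernatant taken as soluble protein. TMTpro 16plex LC-MS/MS with equalised channel sums quantified that protein. Values are log-two fold changes in thermal stability relative to solvent controls, taken from duplicates.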

[1] = compound: CCCS(=O)(=O)Nc1ccc(F)c(C(=O)c2c[nH]c3ncc(Cl)cc23)c1F
Summary of the method: as §1

barasertib = compound: CCN(CCCOc1ccc2c(Nc3cc(CC(=O)Nc4cccc(F)c4)[nH]n3)ncnc2c1)CCOP(=O)(O)O [barasertib]
Summary of the method: as §1

[2] = compound: CC[C@@H]1C(=O)N(C)c2cnc(Nc3ccc(C(=O)NC4CCN(C)CC4)cc3OC)nc2N1C1CCCC1
Summary of the method: as §1

volasertib = compound: CC[C@@H]1C(=O)N(C)c2cnc(Nc3ccc(C(=O)N[C@H]4CC[C@H](N5CCN(CC6CC6)CC5)CC4)cc3OC)nc2N1C(C)C [volasertib]
Summary of the method: as §1

[3] = compound: CCn1c(C(=O)N(C2CC2)C2CC2)cc2c3c(ncn3C)c(Nc3cc(C)n(C)n3)nc21
Summary of the method: as §1

saracatinib = compound: CN1CCN(CCOc2cc(OC3CCOCC3)c3c(Nc4c(Cl)ccc5c4OCO5)ncnc3c2)CC1 [saracatinib]
Summary of the method: as §1

sotrastaurin = compound: CN1CCN(c2nc(C3=C(c4c[nH]c5ccccc45)C(=O)NC3=O)c3ccccc3n2)CC1 [sotrastaurin]
Summary of the method: as §1

Tubastatin A = compound: CN1CCc2c(c3ccccc3n2Cc2ccc(C(=O)NO)cc2)C1 [Tubastatin A]
Summary of the method: as §1

[4] = compound: CNC(=O)C1=CC=CC=C1NC2=NC(=NC=C2Cl)NC3=C(C=C(C=C3)N4CCOCC4)OC
Summary of the method: as §1

defactinib = compound: CNC(=O)c1ccc(Nc2ncc(C(F)(F)F)c(NCc3nccnc3N(C)S(C)(=O)=O)n2)cc1 [defactinib]
Summary of the method: as §1

[5] = compound: CNc1nc(-c2ccc3c(N)n[nH]c3c2)cc(N2C[C@@H](C(=O)NC3CCCCC3)CC[C@H]2C)n1
Summary of the method: as §1

encorafenib = compound: COC(=O)N[C@@H](C)CNc1nccc(-c2cn(C(C)C)nc2-c2cc(Cl)cc(NS(C)(=O)=O)c2F)n1 [encorafenib]
Summary of the method: as §1

[6] = compound: COC(=O)[C@H](CCSC)NC(=O)C1=C(C=C(C=C1)NC[C@H](CS)N)C2=CC=CC=C2
Summary of the method: as §1

alisertib = compound: COc1cc(Nc2ncc3c(n2)-c2ccc(Cl)cc2C(c2c(F)cccc2OC)=NC3)ccc1C(=O)O [alisertib]
Summary of the method: as §1

[7] = compound: COc1cc2nc(-c3cc(F)ccc3O)nc(N[C@@H]3CNC[C@H]3C(C)(C)O)c2cc1OC
Summary of the method: as §1

gefitinib = compound: COc1cc2ncnc(Nc3ccc(F)c(Cl)c3)c2cc1OCCCN1CCOCC1 [gefitinib]
Summary of the method: as §1

[8] = compound: CCn1cc(-c2ccnc3[nH]c(-c4cccc(CN(C)C)c4)cc23)c(-c2ccc(NC(=O)N(C)C)cc2)n1
Summary of the method: as §1

[9] = compound: CN1CCC(CNc2ccc3ncc(-c4cccc(OC(F)(F)F)c4)n3n2)CC1
Summary of the method: as §1

alvocidib = compound: CN1CC[C@H](c2c(O)cc(O)c3c(=O)cc(-c4ccccc4Cl)oc23)[C@H](O)C1 [alvocidib]
Summary of the method: as §1

Target | log2 fold change (vemurafenib) | log2 fold change [1] | log2 fold change (barasertib) | log2 fold change [2] | log2 fold change (volasertib) | log2 fold change [3] | log2 fold change (saracatinib) | log2 fold change (sotrastaurin) | log2 fold change (Tubastatin A) | log2 fold change [4] | log2 fold change (defactinib) | log2 fold change [5] | log2 fold change (encorafenib) | log2 fold change [6] | log2 fold change (alisertib) | log2 fold change [7] | log2 fold change (gefitinib) | log2 fold change [8] | log2 fold change [9] | log2 fold change (alvocidib)
TMEM205 (UniProt Q6UW68) | inactive: -0.013 | inactive: 0.035 | inactive: 0.114 | inactive: -0.027 | inactive: 0.021 | inactive: -0.071 | inactive: 0.034 | inactive: -0.003 | inactive: 0.064 | inactive: 0 | inactive: 0.025 | inactive: -0.069 | inactive: 0.057 | inactive: -0.057 | inactive: 0.03 | inactive: -0.043 | inactive: 0.033 | – | – | –
TMEM268 isoform 3 (UniProt Q5VZI3) | – | – | – | inactive: 0.129 | – | inactive: 0.206 | inactive: 0.134 | inactive: -0.018 | inactive: -0.037 | – | – | inactive: -0.015 | inactive: 0.331 | inactive: 0.113 | – | – | – | inactive: 0.068 | inactive: 0 | inactive: 0.058
TPD52L2 isoform 3 (UniProt O43399) | – | – | inactive: 0.026 | – | – | inactive: -0.028 | – | – | inactive: 0.165 | inactive: 0.144 | – | – | – | – | inactive: 0.094 | – | inactive: -0.244 | inactive: -0.141 | inactive: 0.135 | inactive: 0.127
TMEM208 (UniProt Q9BTX3) | – | inactive: -0.005 | inactive: 0 | inactive: -0.113 | inactive: -0.081 | inactive: 0.027 | inactive: 0.087 | inactive: 0.063 | inactive: -0.099 | inactive: -0.08 | – | inactive: 0.031 | inactive: 0.039 | inactive: -0.102 | inactive: 0.01 | inactive: -0.069 | inactive: -0.008 | inactive: -0.369 | inactive: 0.246 | inactive: -0.173
TNRC6C isoform 2 (UniProt Q9HCJ0) | – | inactive: -0.004 | inactive: -0.067 | inactive: -0.15 | inactive: 0.013 | inactive: 0.076 | inactive: -0.034 | – | inactive: -0.069 | inactive: 0.007 | – | inactive: -0.205 | inactive: -0.031 | inactive: -0.289 | – | inactive: 0.018 | – | inactive: -0.279 | inactive: 0.024 | inactive: -0.055
TNIK isoform 5 (UniProt Q9UKE5) | – | inactive: -0.118 | inactive: 0.021 | – | inactive: -0.087 | inactive: -0.059 | inactive: 0.022 | inactive: 0.034 | inactive: -0.015 | – | – | inactive: -0.04 | – | – | – | inactive: 0.214 | – | inactive: -0.051 | inactive: -0.065 | inactive: 0.012
TMSB4X (UniProt P62328) | – | inactive: -0.068 | inactive: 0.056 | inactive: 0.084 | inactive: 0.104 | inactive: -0.187 | – | inactive: 0.205 | inactive: 0.102 | inactive: -0.045 | – | – | inactive: 0.043 | inactive: -0.055 | inactive: -0.143 | inactive: 0.063 | inactive: -0.001 | inactive: -0.191 | inactive: 0.371 | inactive: 0.401
TMEM44 (UniProt Q2T9K0) | – | inactive: 0.061 | inactive: 0.078 | inactive: 0.094 | inactive: 0.004 | – | inactive: -0.067 | – | – | – | – | inactive: -0.006 | inactive: 0.087 | inactive: -0.207 | – | inactive: 0.224 | – | – | – | –
TNK2 isoform 3 (UniProt Q07912) | – | – | inactive: 0.058 | – | – | inactive: 0.127 | – | inactive: -0.058 | inactive: -0.402 | – | – | – | – | – | – | – | – | inactive: -0.061 | inactive: -0.244 | inactive: 0.05
TNFAIP3 (UniProt P21580) | – | inactive: 0.004 | inactive: -0.015 | inactive: -0.412 | inactive: -0.063 | inactive: 0.051 | inactive: 0.029 | inactive: -0.006 | inactive: -0.076 | inactive: 0.022 | – | inactive: -0.009 | active: 0.276 | inactive: 0.228 | inactive: 0.002 | inactive: 0.031 | inactive: -0.028 | inactive: -0.009 | inactive: 0.017 | inactive: 0.005
TNNC1 (UniProt P63316) | – | – | inactive: 0.585 | – | – | – | – | – | – | – | – | – | – | – | – | – | – | inactive: 0.509 | inactive: 0.325 | inactive: -1.92
TMPO isoform 2 (UniProt P42167) | inactive: 0.08 | – | inactive: 0.185 | inactive: 0.075 | – | – | inactive: 0.044 | – | – | – | inactive: 0.058 | inactive: 0.186 | inactive: -0.113 | inactive: -0.14 | – | – | – | – | – | –
TMEM79 (UniProt Q9BSE2) | – | – | – | – | – | – | – | – | – | – | – | – | – | – | inactive: -0.027 | – | inactive: -0.003 | – | – | –
TMEM267 (UniProt Q0VDI3) | – | – | inactive: 0.023 | – | – | inactive: -0.046 | – | inactive: 0.016 | inactive: 0.025 | inactive: -0.066 | – | – | – | – | inactive: -0.319 | – | inactive: -0.048 | inactive: 0.053 | inactive: 0.004 | inactive: -0.12
TMEM59 (UniProt Q9BXS4) | – | – | – | – | – | inactive: 0.041 | – | – | inactive: 0.138 | – | – | – | – | – | – | – | – | inactive: -0.003 | inactive: -0.001 | inactive: -0.011
TMEM50A (UniProt O95807) | – | – | – | inactive: 0.121 | – | – | – | – | – | – | – | – | inactive: 0.117 | inactive: 0.315 | – | – | – | – | – | –
TMEM189 (UniProt A5PLL7) | – | inactive: -0.11 | inactive: 0.111 | inactive: 0.098 | inactive: 0.062 | inactive: -0.081 | inactive: 0.001 | inactive: -0.005 | inactive: 0.01 | inactive: 0.133 | – | inactive: -0.137 | inactive: 0.034 | inactive: -0.092 | inactive: 0.035 | inactive: -0.096 | inactive: -0.038 | inactive: -0.215 | inactive: 0.021 | inactive: -0.065
TMEM222 (UniProt Q9H0R3) | – | inactive: 0.008 | inactive: -0.02 | inactive: -0.088 | inactive: 0.079 | inactive: 0.091 | inactive: -0.021 | inactive: 0.134 | inactive: 0.014 | inactive: -0.023 | – | inactive: 0.163 | inactive: 0.03 | inactive: 0.145 | inactive: 0.068 | inactive: -0.145 | inactive: -0.097 | – | – | –
TMEM98 (UniProt Q9Y2Y6) | – | – | – | – | – | inactive: -0.298 | – | – | inactive: -0.093 | – | – | – | – | – | inactive: 0.091 | – | inactive: -0.055 | inactive: 0.019 | inactive: 0.012 | inactive: -0.015
TOMM6 (UniProt Q96B49) | inactive: 0.121 | – | inactive: 0.205 | inactive: 0.083 | – | – | inactive: 0.017 | – | – | inactive: -0.099 | inactive: 0.013 | inactive: -0.018 | inactive: -0.066 | inactive: -0.125 | – | – | – | inactive: -0.02 | inactive: 0 | inactive: 0.123
TNFAIP1 (UniProt Q13829) | – | – | inactive: 0.101 | – | – | inactive: 0.221 | – | – | inactive: 0.148 | – | – | – | – | – | – | – | – | inactive: -0.138 | inactive: -0.064 | inactive: 0.221
TMEM209 (UniProt Q96SK2) | – | inactive: 0.055 | inactive: 0.053 | – | inactive: 0.048 | inactive: 0.054 | inactive: 0.128 | inactive: 0.018 | inactive: -0.011 | inactive: -0.26 | – | inactive: -0.119 | – | – | – | inactive: 0.039 | – | inactive: 0.114 | inactive: -0.07 | inactive: 0.112

Another view of part of the listing above:
Target	log2 fold change (vemurafenib)	log2 fold change [1]	log2 fold change (barasertib)	log2 fold change [2]	log2 fold change (volasertib)	log2 fold change [3]	log2 fold change (saracatinib)	log2 fold change (sotrastaurin)	log2 fold change (Tubastatin A)	log2 fold change [4]	log2 fold change (defactinib)	log2 fold change [5]	log2 fold change (encorafenib)	log2 fold change [6]	log2 fold change (alisertib)	log2 fold change [7]	log2 fold change (gefitinib)	log2 fold change [8]	log2 fold change [9]	log2 fold change (alvocidib)
TNIK isoform 5 (UniProt Q9UKE5)	–	inactive: -0.118	inactive: 0.021	–	inactive: -0.087	inactive: -0.059	inactive: 0.022	inactive: 0.034	inactive: -0.015	–	–	inactive: -0.04	–	–	–	inactive: 0.214	–	inactive: -0.051	inactive: -0.065	inactive: 0.012
TMSB4X (UniProt P62328)	–	inactive: -0.068	inactive: 0.056	inactive: 0.084	inactive: 0.104	inactive: -0.187	–	inactive: 0.205	inactive: 0.102	inactive: -0.045	–	–	inactive: 0.043	inactive: -0.055	inactive: -0.143	inactive: 0.063	inactive: -0.001	inactive: -0.191	inactive: 0.371	inactive: 0.401
